In PubChem BioAssay AID2417 (National Center for Advancing Translational Sciences (NCATS), 2010):
Out of some 140,000 compounds screened, about 4,300 (3.1%) were called active. The inconclusive results got no clear call from the source; some entries with a clear call stand among them for comparison.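 How the source made its calls: active means readout at or below -70, meaning at least 70% loss of cells showing the perinucleolar compartment, a nuclear body marking cancer cells; inconclusive means readout between -30 and a set limit; inactive means the rest.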

Assay: High Content Assay for Compounds that inhibit the Assembly of the Perinucleolar Compartment;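 further: plate controls were DMSO wells for no effect and camptothecin positive control wells for full effect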
Conditions: PC3M PTB-GFP, PNC prevalence imaging, 16 h; at 10 µM; active compounds read low
Outline: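 Read-out is percentage of cells bearing a perinucleolar compartment, from automated 20x imaging of fixed, Hoechst-stained PC3M PTB-GFP cells. Cells were seeded 4 h, then exposed 16 h to compound (23 nl of library stock) in duplicate plates.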

Compound | activity change (PNC), negative = inhibition
CCOc1ccc(C2=NNC(c3cccs3)=Nc3ccc(OC)cc32)cc1 | inconclusive: -59.2%
COC(=O)C1=NNCC12CC(=O)N(c1ccc(Br)cc1)C2=O (centres undefined) | inconclusive: -37.2%
Cc1c(NC(=O)CSc2nnc3c4ccccc4n(CCc4ccccc4)c3n2)c(=O)n(-c2ccccc2)n1C | active: -89.7%
CCC1CCCCN1C(=O)CSc1nnc(-c2ccc3c(c2)OCCO3)o1 (centres undefined) | active: -107%
O=c1c2c(nc3c(-c4ccccc4)c[nH]n13)CCC2 | inactive: 48.4%
COc1cccc(NC(=O)CNC(C)CCC(C)C)c1 (centres undefined) | inconclusive: -47.9%
CCOC(=O)c1[nH]c2ccccc2c1NC(=O)c1ccc(S(=O)(=O)N2CCCCC2)cc1 | inconclusive: -77.5%
CC(C)(C)c1ccc(CNc2cc(N3CCOCC3)ccc2[N+](=O)[O-])cc1 | inactive: 21.9%
CC(C)(C)c1ccc(CS(=O)(=O)CC2(O)CCN(C(=O)c3cccc(C(F)(F)F)c3)CC2)cc1 | inactive: 29%
O=C(CSc1ncn[nH]1)c1cccc([N+](=O)[O-])c1 | inactive: 9.67%
COC(=O)c1sccc1NC(=O)COc1ccccc1Cl | inactive: -21.6%
COc1ccccc1N1CCN(C(=O)Nc2ccc([N+](=O)[O-])cc2)CC1 | inconclusive: -41.8%
Cc1cc(C)n(S(=O)(=O)c2ccc(C(C)(C)C)cc2)n1 | inconclusive: -41.7%
CCCn1c(=O)c(C(=O)NCc2ccccn2)c(O)c2ccccc21 | inactive: 12.3%
COc1ccc(CC(=O)Nc2ccc(-c3noc(-c4ccccc4OC)n3)cc2)cc1 | inconclusive: -44.4%
O=C(Nc1cccnc1)c1ccccc1F | inconclusive: -52.4%
CC1(C)CC(=O)C2=C(C1)Oc1ncn3nc(-c4cccnc4)nc3c1C2c1ccccc1 (centres undefined) | inconclusive: -44.6%
CCSC1=C(C#N)C(c2cccc(OC)c2)CC(=O)N1 (centres undefined) | inconclusive: -52.1%
O=C(C[n+]1ccc(C(=O)N/N=C/c2ccc(Br)cc2)cc1)c1ccccc1 | inactive: 11%
CCN(CC)S(=O)(=O)c1ccc2c(c1)C(=NO)c1cc(S(=O)(=O)N(CC)CC)ccc1-2 | inconclusive: -32.8%
FC(F)(F)c1ccccc1C1C2=C(Nc3ncnn31)c1ccccc1CCC2 (centres undefined) | inactive: 13%
Cc1ccc(OCCN2C(=O)c3ccccc3C2=O)c(C)c1 | inactive: 21.7%
Cc1nnc(SCC(=O)NCc2ccco2)n1-c1ccc(F)cc1 | inconclusive: -63.6%
c1ccc(-n2ncc3c2ncn2nc(CSc4nc5ccccc5s4)nc32)cc1 | inconclusive: -37.1%

2 consecutive entries from above, quoted:
Compound | activity change (PNC), negative = inhibition
COc1ccc(CC(=O)Nc2ccc(-c3noc(-c4ccccc4OC)n3)cc2)cc1 | inconclusive: -44.4%
O=C(Nc1cccnc1)c1ccccc1F | inconclusive: -52.4%
